Source: PMC6260918
No constants are given. Whether binding was seen depends on the method and setting. Binding seen in cells or lysates may run through a third protein. Some binding calls cover weakened binding; strength is not graded here.

The chains behind the UniProt entries cited, without tags or fusion partners.
UniProt P31749: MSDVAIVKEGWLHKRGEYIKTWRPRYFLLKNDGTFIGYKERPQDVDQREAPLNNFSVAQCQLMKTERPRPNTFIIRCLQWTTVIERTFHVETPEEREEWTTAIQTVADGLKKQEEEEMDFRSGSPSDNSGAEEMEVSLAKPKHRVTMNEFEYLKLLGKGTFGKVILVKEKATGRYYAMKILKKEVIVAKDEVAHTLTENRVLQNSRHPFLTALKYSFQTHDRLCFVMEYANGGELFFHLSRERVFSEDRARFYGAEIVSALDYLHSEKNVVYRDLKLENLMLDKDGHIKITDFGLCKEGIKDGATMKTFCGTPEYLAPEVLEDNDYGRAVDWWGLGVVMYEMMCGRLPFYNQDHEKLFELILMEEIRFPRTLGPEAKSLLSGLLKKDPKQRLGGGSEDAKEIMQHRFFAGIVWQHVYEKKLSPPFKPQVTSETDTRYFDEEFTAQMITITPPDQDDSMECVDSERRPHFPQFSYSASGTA

Biological target: T1, Thioredoxin-interacting protein (TXNIP), overexpressed from a plasmid (UniProt Q9H3M7)
T1 sequence: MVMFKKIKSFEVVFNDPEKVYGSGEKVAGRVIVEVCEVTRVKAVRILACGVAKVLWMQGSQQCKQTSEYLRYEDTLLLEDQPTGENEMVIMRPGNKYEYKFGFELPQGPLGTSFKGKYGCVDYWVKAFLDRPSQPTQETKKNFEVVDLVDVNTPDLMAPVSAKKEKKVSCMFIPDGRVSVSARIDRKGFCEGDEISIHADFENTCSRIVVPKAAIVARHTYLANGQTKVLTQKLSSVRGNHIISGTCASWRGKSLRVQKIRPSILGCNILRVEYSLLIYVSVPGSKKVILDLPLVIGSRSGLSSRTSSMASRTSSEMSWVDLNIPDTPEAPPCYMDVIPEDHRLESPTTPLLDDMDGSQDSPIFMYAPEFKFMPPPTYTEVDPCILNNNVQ
Assay: pull-down; GST pull-down from 293T cells cotransfected with TXNIP and AKT plasmids; also after 25 mM glucose for 1 hr or 0.5 mM H2O2 for 1 hr (interaction induced)

binding: binds
Substance: AKT (protein kinase B), overexpressed from a plasmid (from UniProt P31749 1-480) (enzyme)
